# Test results taken from the supplement of paper PMC4635364.
# Structures can show the parent of a compound that is named as a salt. Some of the results follow. This data set is noisy: repeats of one test often differ as much as different tests do.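 Cells: ReNCell VM human fetal ventral-midbrain neural progenitors, differentiated mitogen-free. Blinded raters compared doublecortin-stained (early neurons) or tyrosine hydroxylase-stained (dopaminergic neurons) images with untreated wells, where 0 means no change. After repeats and both raters were averaged, compounds scoring 2 or above became hits for retesting.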
# Columns and labels:
# ReNCell VM [1] = assay: neuronal differentiation score (DCX+ cell fraction vs untreated, manual image score) (score (-3 to 3)); higher = more neuronal differentiation; conditions: 2 uM, 2 weeks
# ReNCell VM [2] = assay: dopaminergic neuron differentiation score (TH+ cell fraction vs untreated, manual image score) (score (0 to 3)); higher = more TH+ dopaminergic neuron differentiation; conditions: 2 uM, 4 weeks, BDNF 10 ng/ml + GDNF 10 ng/ml
smiles,measurement,setting,value
O=C1C=CC2=C3c4cc(O)c(O)cc4CC3(O)COC2=C1O (configuration not stated) [haematein],neuronal differentiation score,ReNCell VM [1]; library: Natural,inactive: -1
same,dopaminergic neuron differentiation score,ReNCell VM [2]; library: Natural,inactive: 0
Cc1cn[nH]c1 [Fomepizole],neuronal differentiation score,ReNCell VM [1]; library: Prestwick,inactive: 0
same,dopaminergic neuron differentiation score,ReNCell VM [2]; library: Prestwick,inactive: 0
COc1ccc(C2c3cc(OC)c(OC)cc3CC3=c4cc(OC)c(OC)cc4=CCN32)cc1OC (configuration not stated),neuronal differentiation score,ReNCell VM [1]; library: Natural,inactive: 0
same,dopaminergic neuron differentiation score,ReNCell VM [2]; library: Natural,inactive: 0
Cc1ccc(Cl)c(Nc2ccccc2C(=O)O)c1Cl [Meclofenamic acid sodium],neuronal differentiation score,ReNCell VM [1]; library: LOPAC,inactive: 0
same,dopaminergic neuron differentiation score,ReNCell VM [2]; library: LOPAC,inactive: 0
CC[C@H]1OC(=O)[C@H](C)[C@@H](O[C@H]2C[C@@](C)(OC)[C@@H](O)[C@H](C)O2)[C@H](C)[C@@H](O[C@@H]2O[C@H](C)C[C@H](N(C)C)[C@H]2O)[C@](C)(O)C[C@@H](C)[C@@H]2N[C@@H](COCCOC)O[C@H]([C@H]2C)[C@]1(C)O [Dirithromycin],neuronal differentiation score,ReNCell VM [1]; library: Prestwick,inactive: 0
same,dopaminergic neuron differentiation score,ReNCell VM [2]; library: Prestwick,inactive: 0
CC[C@H](C)C(=O)O[C@H]1C[C@H](O)C=C2C=C[C@H](C)[C@H](CC[C@@H](O)C[C@@H](O)CC(=O)O)[C@H]21,neuronal differentiation score,ReNCell VM [1]; library: Spectrum,inactive: 0
same,dopaminergic neuron differentiation score,ReNCell VM [2]; library: Spectrum,active: 2
O=C1C(Cl)=C(NCCN2CCOCC2)C(=O)c2ncccc21,neuronal differentiation score,ReNCell VM [1]; library: Tocriscreen,inactive: 0
same,dopaminergic neuron differentiation score,ReNCell VM [2]; library: Tocriscreen,inactive: 0
CC(=O)Oc1ccc2c(c1)CCC1C2CC[C@]2(C)C(=O)CCC12 (some centres not stated),neuronal differentiation score,ReNCell VM [1]; library: Spectrum,inactive: 0
same,dopaminergic neuron differentiation score,ReNCell VM [2]; library: Spectrum,inactive: 0
"COc1c(C=O)c(=O)[nH]c2c(OC)cccc12 [2-hydroxy-4,8-dimethoxy-quinoline-3-carbaldehyde]",neuronal differentiation score,ReNCell VM [1]; library: Natural,inactive: 0
same,dopaminergic neuron differentiation score,ReNCell VM [2]; library: Natural,inactive: 0
CCOC(=O)N1CCC(=C2c3ccc(Cl)cc3CCc3cccnc32)CC1 [Loratidine],neuronal differentiation score,ReNCell VM [1]; library: Tocriscreen,inactive: 0
same,dopaminergic neuron differentiation score,ReNCell VM [2]; library: Tocriscreen,inactive: 0
OC[C@H]1O[C@@H](n2cnc3c(NCc4ccco4)ncnc32)[C@H](O)[C@@H]1O [kinetin riboside],neuronal differentiation score,ReNCell VM [1]; library: Natural,inactive: -1
same,dopaminergic neuron differentiation score,ReNCell VM [2]; library: Natural,inactive: 0
CC(=O)OCC1=C(C(=O)O)N2C(=O)[C@@H](NC(=O)CSc3ccncc3)[C@H]2SC1,neuronal differentiation score,ReNCell VM [1]; library: Spectrum,inactive: 0
same,dopaminergic neuron differentiation score,ReNCell VM [2]; library: Spectrum,inactive: 0
Cc1nnc(NS(=O)(=O)c2ccc(N)cc2)s1 [Sulfamethizole],neuronal differentiation score,ReNCell VM [1]; library: Prestwick,inactive: 0
same,dopaminergic neuron differentiation score,ReNCell VM [2]; library: Prestwick,inactive: 0
COc1c2c(c(OC)c3c(=O)c4ccccc4[nH]c13)OCO2 [Xanthevodine],neuronal differentiation score,ReNCell VM [1]; library: Phytochemical,inactive: 0
same,dopaminergic neuron differentiation score,ReNCell VM [2]; library: Phytochemical,inactive: 0
COC(=O)/C(=C1/OC(=O)C(c2ccccc2)=C1O)c1ccccc1 [Vulpinic acid],neuronal differentiation score,ReNCell VM [1]; library: Phytochemical,inactive: 0
same,dopaminergic neuron differentiation score,ReNCell VM [2]; library: Phytochemical,inactive: 0
O=C(/C=C/c1ccc(O)c(O)c1)OCCc1ccccc1,neuronal differentiation score,ReNCell VM [1]; library: Spectrum,inactive: 0
same,dopaminergic neuron differentiation score,ReNCell VM [2]; library: Spectrum,inactive: 0
O=C(NCCCCCCNC(=O)ON=C1CCCCC1)ON=C1CCCCC1,neuronal differentiation score,ReNCell VM [1]; library: Tocriscreen,inactive: -1
same,dopaminergic neuron differentiation score,ReNCell VM [2]; library: Tocriscreen,inactive: 0
Nc1nc(Nc2ccccc2)nc2c1ncn2[C@@H]1O[C@H](CO)[C@@H](O)[C@H]1O,neuronal differentiation score,ReNCell VM [1]; library: Tocriscreen,inactive: 0
same,dopaminergic neuron differentiation score,ReNCell VM [2]; library: Tocriscreen,inactive: 0
C[C@H](CCC(=O)O)[C@H]1CC[C@H]2[C@@H]3[C@H](O)C[C@@H]4C[C@H](O)CC[C@]4(C)[C@H]3C[C@H](O)[C@]12C,neuronal differentiation score,ReNCell VM [1]; library: Spectrum,inactive: 0
same,dopaminergic neuron differentiation score,ReNCell VM [2]; library: Spectrum,inactive: 0
"CN(C)C(=O)N=NC(=O)N(C)C [N,N,N',N'-Tetramethylazodicarboxamide]",neuronal differentiation score,ReNCell VM [1]; library: LOPAC,inactive: 0
same,dopaminergic neuron differentiation score,ReNCell VM [2]; library: LOPAC,inactive: 0
O=C1CCc2ccc(OCCCCN3CCN(c4cccc(Cl)c4Cl)CC3)cc2N1,neuronal differentiation score,ReNCell VM [1]; library: Spectrum,inactive: -3
same,dopaminergic neuron differentiation score,ReNCell VM [2]; library: Spectrum,inactive: 0
COc1ccc(Br)cc1S(=O)(=O)NC(=O)/C=C/c1ccccc1Cc1ccc2ccccc2c1,neuronal differentiation score,ReNCell VM [1]; library: Tocriscreen,inactive: 0
same,dopaminergic neuron differentiation score,ReNCell VM [2]; library: Tocriscreen,inactive: 0
Nc1ccn([C@H]2CC[C@@H](CO)O2)c(=O)n1,neuronal differentiation score,ReNCell VM [1]; library: Spectrum,inactive: 0
same,dopaminergic neuron differentiation score,ReNCell VM [2]; library: Spectrum,inactive: 0
CCCCNc1ccc(C(=O)OCCOCCOCCOCCOCCOCCOCCOCCOCCOC)cc1,neuronal differentiation score,ReNCell VM [1]; library: Spectrum,inactive: 0
same,dopaminergic neuron differentiation score,ReNCell VM [2]; library: Spectrum,inactive: 0
N#C/C(=C\c1c[nH]c2ccccc12)C(=O)c1ccc(O)c(O)c1 [Tyrphostin AG 808],neuronal differentiation score,ReNCell VM [1]; library: LOPAC,inactive: 0
same,dopaminergic neuron differentiation score,ReNCell VM [2]; library: LOPAC,inactive: 0
CC[C@H]1OC(=O)C[C@@H](O)[C@H](C)[C@@H](O[C@@H]2O[C@H](C)[C@@H](O[C@H]3C[C@@](C)(O)[C@@H](O)[C@H](C)O3)[C@H](N(C)C)[C@H]2O)[C@@H](CC=O)C[C@@H](C)C(=O)/C=C/C(C)=C/[C@@H]1CO[C@@H]1O[C@H](C)[C@@H](O)[C@@H](OC)[C@H]1OC [Tylosin],neuronal differentiation score,ReNCell VM [1]; library: Prestwick,inactive: 0
same,dopaminergic neuron differentiation score,ReNCell VM [2]; library: Prestwick,inactive: 0
CCCCc1nc2ccn(Cc3cccs3)c(=O)c2n1Cc1ccc(-c2ccccc2-c2nn[nH]n2)cc1,neuronal differentiation score,ReNCell VM [1]; library: Tocriscreen,inactive: 0
same,dopaminergic neuron differentiation score,ReNCell VM [2]; library: Tocriscreen,inactive: 0
NC(Cn1ccc(=O)c(O)c1)C(=O)O (configuration not stated) [Mimosine],neuronal differentiation score,ReNCell VM [1]; library: Phytochemical,inactive: -1
same,dopaminergic neuron differentiation score,ReNCell VM [2]; library: Phytochemical,inactive: 0
C[C@@H](CN1CCC(Cc2ccccc2)CC1)[C@@H](O)c1ccc(O)cc1 [Ro 25-6981 maleate],neuronal differentiation score,ReNCell VM [1]; library: Tocriscreen,inactive: 0
same,dopaminergic neuron differentiation score,ReNCell VM [2]; library: Tocriscreen,inactive: 0
CO[C@@]1(NC(=O)CSCC#N)C(=O)N2C(C(=O)O)=C(CSc3nnnn3C)CS[C@@H]21,neuronal differentiation score,ReNCell VM [1]; library: Spectrum,inactive: 0
same,dopaminergic neuron differentiation score,ReNCell VM [2]; library: Spectrum,inactive: 0
COc1ccc2c(c1)OCc1c-2oc2cc(OC)ccc12,neuronal differentiation score,ReNCell VM [1]; library: Spectrum,inactive: 0
same,dopaminergic neuron differentiation score,ReNCell VM [2]; library: Spectrum,inactive: 0
N=C(N=C(N)N)N1CCOCC1 [Moroxidine hydrochloride],neuronal differentiation score,ReNCell VM [1]; library: Prestwick,inactive: 0
same,dopaminergic neuron differentiation score,ReNCell VM [2]; library: Prestwick,inactive: 0
CC1(C)O[C@@H]2C[C@H]3[C@@H]4C[C@H](F)C5=CC(=O)CC[C@]5(C)[C@H]4[C@@H](O)C[C@]3(C)[C@]2(C(=O)CO)O1 [Flurandrenolide],neuronal differentiation score,ReNCell VM [1]; library: Prestwick,inactive: 0
same,dopaminergic neuron differentiation score,ReNCell VM [2]; library: Prestwick,inactive: 1
CC(=O)OCC(=O)[C@@]1(O)CC[C@H]2[C@@H]3CCC4=CC(=O)CC[C@]4(C)[C@@]3(F)[C@@H](O)C[C@@]21C [Fludrocortisone acetate],neuronal differentiation score,ReNCell VM [1]; library: Prestwick,inactive: 0
same,dopaminergic neuron differentiation score,ReNCell VM [2]; library: Prestwick,inactive: 0
Oc1ccc(C2CNCCc3c2cc(O)c(O)c3Cl)cc1 (configuration not stated) [Fenoldopam hydrochloride],neuronal differentiation score,ReNCell VM [1]; library: Tocriscreen,inactive: 0
same,dopaminergic neuron differentiation score,ReNCell VM [2]; library: Tocriscreen,inactive: 0
CCCCOCCOCCOCc1cc2c(cc1CCC)OCO2,neuronal differentiation score,ReNCell VM [1]; library: Spectrum,inactive: 0
same,dopaminergic neuron differentiation score,ReNCell VM [2]; library: Spectrum,inactive: 0
CCCCCc1c2c(cc(O)c1C(=O)O)OC(=O)c1c(cc(OC)cc1C(=O)CCCC)O2,neuronal differentiation score,ReNCell VM [1]; library: Spectrum,inactive: 0
same,dopaminergic neuron differentiation score,ReNCell VM [2]; library: Spectrum,inactive: 0
NS(=O)(=O)c1cc2c(cc1C(F)(F)F)NCNS2(=O)=O [Hydroflumethiazide],neuronal differentiation score,ReNCell VM [1]; library: Prestwick,inactive: 0
same,dopaminergic neuron differentiation score,ReNCell VM [2]; library: Prestwick,inactive: 0
O=C(O)CP(=O)(O)O [Phosphonoacetic acid],neuronal differentiation score,ReNCell VM [1]; library: LOPAC,inactive: 0
same,dopaminergic neuron differentiation score,ReNCell VM [2]; library: LOPAC,inactive: 0
Nc1ccc(S(=O)(=O)Nc2ccc(Cl)nn2)cc1 [Sulfachloropyridazine],neuronal differentiation score,ReNCell VM [1]; library: Prestwick,inactive: 0
same,dopaminergic neuron differentiation score,ReNCell VM [2]; library: Prestwick,inactive: 0
CCCCC1C(=O)N(c2ccccc2)N(c2ccc(O)cc2)C1=O (configuration not stated),neuronal differentiation score,ReNCell VM [1]; library: Spectrum,inactive: 0
same,dopaminergic neuron differentiation score,ReNCell VM [2]; library: Spectrum,inactive: 0
O=C(NCCO[N+](=O)[O-])c1cccnc1,neuronal differentiation score,ReNCell VM [1]; library: Spectrum,inactive: 0
same,dopaminergic neuron differentiation score,ReNCell VM [2]; library: Spectrum,inactive: 0
NCCCNCCCCNCCCN [Spermine tetrahydrochloride],neuronal differentiation score,ReNCell VM [1]; library: LOPAC,active: 3
same,dopaminergic neuron differentiation score,ReNCell VM [2]; library: LOPAC,inactive: 0
CO/N=C(\C(=O)N[C@@H]1C(=O)N2C(C(=O)O)=C(COC(C)=O)CS[C@H]12)c1csc(N)n1 [Cefotaxime sodium],neuronal differentiation score,ReNCell VM [1]; library: LOPAC,inactive: -1
same,dopaminergic neuron differentiation score,ReNCell VM [2]; library: LOPAC,inactive: 1
OC[C@H]1O[C@H](O[C@H]2[C@H](O)[C@@H](O)C(O)O[C@@H]2CO)[C@H](O)[C@@H](O)[C@@H]1O (some centres not stated),neuronal differentiation score,ReNCell VM [1]; library: Spectrum,inactive: 0
same,dopaminergic neuron differentiation score,ReNCell VM [2]; library: Spectrum,inactive: 0
CN(C)CCOc1ccc(/C(=C(/CCCl)c2ccccc2)c2ccccc2)cc1 [Toremifene],neuronal differentiation score,ReNCell VM [1]; library: Prestwick,inactive: 0
same,dopaminergic neuron differentiation score,ReNCell VM [2]; library: Prestwick,inactive: 0
CN1CCCC(CC2c3ccccc3Sc3ccccc32)C1 (configuration not stated) [Metixene hydrochloride],neuronal differentiation score,ReNCell VM [1]; library: Prestwick,inactive: 0
same,dopaminergic neuron differentiation score,ReNCell VM [2]; library: Prestwick,inactive: 0
C[C@H]1O[C@@H](n2cc(F)c(=O)[nH]c2=O)[C@H](O)[C@@H]1O,neuronal differentiation score,ReNCell VM [1]; library: Spectrum,inactive: 0
same,dopaminergic neuron differentiation score,ReNCell VM [2]; library: Spectrum,inactive: 1
Nc1ncnc2c1ncn2[C@@H]1O[C@H](CO)[C@@H](O)[C@@H]1O [Vidarabine],neuronal differentiation score,ReNCell VM [1]; library: Prestwick,inactive: 0
same,dopaminergic neuron differentiation score,ReNCell VM [2]; library: Prestwick,inactive: 0
CCCCOC(=O)c1ccc(O)cc1 [Butylparaben],neuronal differentiation score,ReNCell VM [1]; library: Prestwick,inactive: 0
same,dopaminergic neuron differentiation score,ReNCell VM [2]; library: Prestwick,inactive: 0
COc1ccc2c(c1OC)OC[C@@H](c1ccc(OC)c(OC)c1OC)C2,neuronal differentiation score,ReNCell VM [1]; library: Spectrum,inactive: 0
same,dopaminergic neuron differentiation score,ReNCell VM [2]; library: Spectrum,inactive: 0
